Test results published in patent US5016655A, “Cigarette manufacturing process” (priority 1989, dated 1991).

Columns and labels:
[1] = cited from earlier work; for concentration in the smoke stream: IARC 1986, depending on filtration; for Concentration Range in cigarette smoke: filtered cigarettes
[2] = transfer of cyclohexanol into smoke, standard smoking machine (Example 6)
[3] = calculated air concentrations of cyclohexanol from cigarette smoke; details: 0.500 mg cyclohexanol per cigarette
[4] = transfer of cyclohexanol to cigarette smoke, gas chromatography (Example 7)

SMILES | concentration in the smoke stream [1] | Concentration Range in cigarette smoke [1] | smoked concentration ([2]; 620 micrograms per cigarette) | smoked concentration ([2]; 8750 micrograms loaded per cigarette) | part of initial load on the tobacco transferred into inhaled smoke ([2]; one cigarette) | amount transferred to the smoke [3] [mg] | percentage transferred to the smoke [3] [%] | % Transfer, Non-particulate ([4]; 713.7 ug/cig. loaded) [%] | % Transfer, Particulate ([4]; 713.7 ug/cig. loaded) [%] | % Transfer, Total Transfer ([4]; 713.7 ug/cig. loaded) [%] | Amount Recovered in Smoke, Non-particulate ([4]; 713.7 ug/cig. loaded) [ug/cigarette] | Amount Recovered in Smoke, Particulate ([4]; 713.7 ug/cig. loaded) [ug/cigarette] | Amount Recovered in Smoke, Total ([4]; 713.7 ug/cig. loaded) [ug/cigarette] | Cyclohexanol concentration in smoke ([4]; Fully Smoked Cigarette) [µg/L] | Cyclohexanol concentration in smoke ([4]; Instant ("Puff") Exposure) [µg/L]
O=NN1CCCC1c1cccnc1 (centres unmarked) [NNN, N'-Nitrosonoronicotine] | 0.2-3.7 ug per cigarette | 50-310 Nanograms per Cigarette |  |  |  |  |  |  |  |  |  |  |  |  | 
OC1CCCCC1 [Cyclohexanol] |  |  | 197 milligrams per cubic meter | 2778 milligrams of cyclohexanol per cubic meter | Approximately ten; also recorded: five to twenty | 0.050 | 10 | 4.3 | 2.3 | 6.6 | 30.8 | 16.7 | 47.5 | 118.9 | 9.9
CN(CCCC(=O)c1cccnc1)N=O [NNK] | 0.12-0.44 ug per cigarette | 30-150 Nanograms per Cigarette |  |  |  |  |  |  |  |  |  |  |  |  | 

Entries after “also recorded” stand apart in the source; their conditions may differ.
